{
  "source": "paper PMC5996148",
  "assay_in_all_cases": "protein microarray (ProtoArray v5.0), streptavidin-Alexa Fluor 647",
  "details_in_all_cases": "3'-biotin; 20 mM Tris (pH 7.5), 5 mM MgCl2, 100 mM KCl, 0.1% Tween-20, A/T-rich and random oligonucleotide blockers; temperature not stated; high values mean tight binding",
  "key": {"NINJ1 (human)": {"tested_on": "NINJ1 (human)"}, "NINJ2 (human)": {"tested_on": "NINJ2 (human)"}, "NIPA2 (human)": {"tested_on": "NIPA2 (human)"}, "NIPSNAP3B (human)": {"tested_on": "NIPSNAP3B (human)"}, "NIT2 (human)": {"tested_on": "NIT2 (human)"}, "NKAIN4 (human)": {"tested_on": "NKAIN4 (human)"}, "NKD2 (human)": {"tested_on": "NKD2 (human)"}, "NKG2D ligand 4 (human)": {"tested_on": "NKG2D ligand 4 (human)"}, "NLRP2 (human)": {"tested_on": "NLRP2 (human)"}, "NMB (human)": {"tested_on": "NMB (human)"}, "NME1 (human)": {"tested_on": "NME1 (human)"}, "NME5 (human)": {"tested_on": "NME5 (human)"}, "NME6 (human)": {"tested_on": "NME6 (human)"}, "NME7 (human)": {"tested_on": "NME7 (human)"}, "NMI (human)": {"tested_on": "NMI (human)"}, "NMNAT2 (human)": {"tested_on": "NMNAT2 (human)"}, "NOL6 (human)": {"tested_on": "NOL6 (human)"}, "NOL7": {"target": "T1, NOL7 (UniProt Q9UMY1)", "T1 sequence": "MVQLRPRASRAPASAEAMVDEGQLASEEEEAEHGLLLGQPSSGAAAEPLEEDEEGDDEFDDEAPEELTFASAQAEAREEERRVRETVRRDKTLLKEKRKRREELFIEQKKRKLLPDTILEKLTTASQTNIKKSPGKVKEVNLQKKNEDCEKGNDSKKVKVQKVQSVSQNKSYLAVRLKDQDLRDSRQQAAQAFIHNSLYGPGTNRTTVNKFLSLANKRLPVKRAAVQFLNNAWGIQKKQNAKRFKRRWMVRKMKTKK"}, "NOTUM (human)": {"tested_on": "NOTUM (human)"}, "NPC2 (human)": {"tested_on": "NPC2 (human)"}},
  "note": "Several values for one entry are separate records, joined by “and”; a condition that tells them apart may be missing. Equal entries are not always repeated. This is one part of the list. For some assays here: Construct or isoform of the protein are uncertain.",
  "data": [
    {"sequence": "GGGAGGCTGAGGCAGG [G4-1 biotinylated (PQS2)]", "values": [
      {"measurement": "binding signal", "setting": "NINJ1 (human)", "result": -0.319, "unit": "z-score"},
      {"measurement": "binding signal", "setting": "NINJ2 (human)", "result": -0.34, "unit": "z-score"},
      {"measurement": "binding signal", "setting": "NIPA2 (human)", "result": -0.284, "unit": "z-score"},
      {"measurement": "binding signal", "setting": "NIPSNAP3B (human)", "result": -0.346, "unit": "z-score"},
      {"measurement": "binding signal", "setting": "NIT2 (human)", "result": -0.353, "unit": "z-score"},
      {"measurement": "binding signal", "setting": "NKAIN4 (human)", "result": -0.314, "unit": "z-score"},
      {"measurement": "binding signal", "setting": "NKD2 (human)", "result": -0.294, "unit": "z-score"},
      {"measurement": "binding signal", "setting": "NKG2D ligand 4 (human)", "result": -0.307, "unit": "z-score"},
      {"measurement": "binding signal", "setting": "NLRP2 (human)", "result": -0.33, "unit": "z-score"},
      {"measurement": "binding signal", "setting": "NMB (human)", "result": -0.282, "unit": "z-score"},
      {"measurement": "binding signal", "setting": "NME1 (human)", "result": "-0.34 z-score and -0.36 z-score"},
      {"measurement": "binding signal", "setting": "NME5 (human)", "result": -0.342, "unit": "z-score"},
      {"measurement": "binding signal", "setting": "NME6 (human)", "result": -0.347, "unit": "z-score"},
      {"measurement": "binding signal", "setting": "NME7 (human)", "result": -0.294, "unit": "z-score"},
      {"measurement": "binding signal", "setting": "NMI (human)", "result": -0.326, "unit": "z-score"},
      {"measurement": "binding signal", "setting": "NMNAT2 (human)", "result": -0.346, "unit": "z-score"},
      {"measurement": "binding signal", "setting": "NOL6 (human)", "result": -0.328, "unit": "z-score"},
      {"measurement": "binding signal", "setting": "NOL7", "result": 4.76, "unit": "z-score"},
      {"measurement": "binding signal", "setting": "NOTUM (human)", "result": -0.307, "unit": "z-score"},
      {"measurement": "binding signal", "setting": "NPC2 (human)", "result": -0.322, "unit": "z-score"}
    ]}
  ]
}
